Source: article PMC12561996
These are yes or no findings as the source states them, for the method shown. In cells and extracts the contact can be indirect. Some binding calls cover weakened binding; strength is not graded here.

Sequences of proteins named here, by UniProt entry; tags and fusion partners are left off.
UniProt Q9Y297: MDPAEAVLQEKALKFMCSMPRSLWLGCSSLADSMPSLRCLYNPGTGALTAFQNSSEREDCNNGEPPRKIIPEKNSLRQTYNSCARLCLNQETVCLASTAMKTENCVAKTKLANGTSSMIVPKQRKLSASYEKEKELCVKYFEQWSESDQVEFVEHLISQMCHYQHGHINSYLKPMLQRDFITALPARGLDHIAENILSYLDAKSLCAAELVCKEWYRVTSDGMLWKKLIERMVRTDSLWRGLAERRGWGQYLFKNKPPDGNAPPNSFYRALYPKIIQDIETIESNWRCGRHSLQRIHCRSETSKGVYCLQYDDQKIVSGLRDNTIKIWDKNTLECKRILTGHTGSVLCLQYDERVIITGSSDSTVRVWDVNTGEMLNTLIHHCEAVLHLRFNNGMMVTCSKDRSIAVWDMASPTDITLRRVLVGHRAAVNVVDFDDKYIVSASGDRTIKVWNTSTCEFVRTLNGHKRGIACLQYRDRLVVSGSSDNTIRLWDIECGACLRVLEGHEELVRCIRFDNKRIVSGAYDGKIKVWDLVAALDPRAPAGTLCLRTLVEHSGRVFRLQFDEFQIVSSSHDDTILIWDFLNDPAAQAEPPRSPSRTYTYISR

Target: S-phase kinase-associated protein 1 (Skp1) (UniProt P63208)
Test: co-IP; HEK293T cells co-transfected with the tagged proteins, with or without RPS4X; 24 h after transfection 40 uM MG132 for 16 h; lysates immunoprecipitated with a specific antibody, then immunoblot; which partner was precipitated is not given

Q: How did the binding turn out when “human β-TrCP (from UniProt Q9Y297 1-605)” was run?
A: The binding was “binds”.
